The source of these data is PubChem BioAssay AID445 (National Center for Advancing Translational Sciences (NCATS), 2006).

The assay in a line: IkB Signaling. Particulars: ABC-DLBCL IkBa-CBG/CBR dual luciferase ratio (green luciferase fused to IkBa over red control in OCI-Ly3 lymphoma cells), 4 h. The method in brief: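 Curves were fitted separately to fusion (green), unfused (red) and ratio luminescence, then classed by r2, magnitude and activity. Cells: OCI-Ly3, 4 h compound plus doxycycline at 37C; 10 uM MG-132 defined full response.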
The mark [1] stands for this setting: measured here: control luc red channel unless noted.

The structures appear in SMILES notation. This is one part of the list. Shown are side measurements of this screen, not its main read-out; they come without a call. The list favours compounds with an active or inconclusive main result. The note in brackets gives the kind of curve behind each potency; many fits are weak.

In general, AC50 refers to the concentration at which the activity in the assay is half-maximal.

For `CCOc1ccc(NC(=O)CCCc2nnc3n(C)c(=O)c4sccc4n23)cc1`, the half-maximal activity concentration (AC50) under setting [1] is 0.1 µM [rising, full curve, poor fit].

In the case of `O=C(NCc1ccccc1F)C(=O)NCC(c1ccco1)S(=O)(=O)c1cccs1` (stereo unspecified), the AC50 under setting [1] is 3.16 µM [rising, single point].

In the case of `Cc1cccc(OCC(=O)Nc2ccccc2C(=O)OCc2cc(=O)n3nc(C)sc3n2)c1`, under setting [1], the AC50 is 10 µM [falling, partial curve].

In the case of `Cc1ccc(CCNC(=O)c2cc3c(-c4ccccc4F)nn(C)c3s2)cc1`, under setting [1], the AC50 was 12.6 µM [falling, partial curve].

`CCOC(=O)c1ccc2nc(C)cc(Nc3ccc(OC(C)C)cc3)c2c1`: the concentration at half-maximal activity (AC50) under setting [1] is 25.1 µM [falling, single point].

With `Cc1cccc(C(=O)NCCc2nc3ccccc3n2Cc2ccc(Cl)cc2)c1`, the half-maximal activity concentration (AC50) under setting [1] was 31.6 µM [falling, single point].

In the case of `Cc1ccc(OC(C)C(=O)N2CCN(CCc3ccncc3)CC2)cc1C` (stereo unspecified), the AC50 under setting [1] was 10 µM [falling, partial curve].

Consider `Cc1ccc(NC(=O)c2ccc(Cl)cc2Cl)c(C(=O)c2ccccc2)c1`, for which, under setting [1], the AC50 is 12.6 µM [falling, partial curve].

As to `Oc1ccccc1Nc1nc(NCC2CCCO2)c2ccccc2n1` (stereo unspecified), the AC50 runs as follows: (measured here: IkB-luc green channel) 15.8 µM [falling, partial curve]; (measured here: control luc red channel) 10 µM [falling, partial curve].

For `Cc1nc2cccnc2n1C1CCN(C(=O)Nc2ccccc2)CC1`, the AC50 under setting [1] is 12.6 µM [rising, partial curve].

On to `COc1cc(C(=O)Nc2ccc(-n3c(C)nc4ccccc4c3=O)cc2)cc(OC)c1OC`, for which, under setting [1], the AC50 was 6.31 µM [falling, partial curve].

Turning to `COCCCn1c(SCC(=O)N2CCc3ccccc32)nnc1-c1ccoc1C`, the AC50 under setting [1] was 10 µM [falling, partial curve].

As for `Cc1ccc(-c2noc(-c3ccc(NCc4cccnc4)c([N+](=O)[O-])c3)n2)cc1`, the AC50 under setting [1] is 39.8 µM [falling, single point].

As to `COc1ccc(CNS(=O)(=O)c2cc(Br)cc3c2N(C(C)=O)C(C)C3)cc1` (stereo unspecified), under setting [1], the AC50 is 7.94 µM [falling, single point].

Consider `CC(=O)C1=C(c2ccc(Cl)c(Cl)c2)N(C(C)=O)n2c(nnc2-c2ccccc2)S1`, for which, under setting [1], the concentration at half-maximal activity (AC50) was 12.6 µM [falling, partial curve, poor fit].

Turning to `O=C(COCc1cc(-c2ccc(F)cc2)on1)Nc1cc(Cl)ccc1O`, under setting [1], the AC50 was 2 µM [falling, full curve].

Turning to `Cc1ccccc1-n1nc(CO)c(C(=O)NCC(c2ccccc2)c2ccccc2)n1`, the AC50 under setting [1] was 0.794 µM [falling, partial curve].

Turning to `COc1ccc(CCNC(=O)CCCn2c(=O)c3ccccc3n(Cc3ccccc3C#N)c2=O)cc1OC`, the AC50 under setting [1] is 39.8 µM [rising, single point].

For `Cc1ncsc1CCSc1nc2ccccc2c(=O)n1C`, the AC50 under setting [1] is 31.6 µM [falling, single point].

`COc1cccc(C2C=C(c3ccccc3)Nc3c(C(=O)Nc4ccccc4)cnn32)c1OC` (stereo unspecified): the AC50 under setting [1] is 12.6 µM [falling, partial curve].

As to `CC(=O)Nc1nonc1-c1nnc(SCC(=O)Nc2cc(Cl)ccc2C)n1C`, the AC50 under setting [1] was 1 µM [falling, partial curve].

As to `COc1cc(OC)cc(C(=O)Nc2ccc(-c3nc4cc(C(C)C)ccc4o3)cc2)c1`, the AC50 under setting [1] was 0.316 µM [falling, full curve].

As for `Cc1ccc(C)c(N2CCN(S(=O)(=O)c3ccc(-c4coc(C)n4)cc3)CC2)c1`, under setting [1], the AC50 is 31.6 µM [falling, partial curve].

For `COc1ccc(-n2cc(-c3ccc4c(c3)OCO4)n(CC(=O)Nc3cccc(C)c3C)c2=O)c(OC)c1`, the AC50 under setting [1] is 7.94 µM [falling, partial curve].

As for `CCC(c1nnnn1CCc1ccccc1)N(Cc1ccco1)Cc1cc2cccc(C)c2[nH]c1=O` (stereo unspecified), the AC50 under setting [1] is 10 µM [falling, partial curve].

On to `CCOC(=O)c1ccc(N2C(=O)c3n[nH]c(-c4cccs4)c3C2c2ccc(CC)cc2)cc1` (stereo unspecified), for which the AC50 under setting [1] was 25.1 µM [falling, single point].

On to `O=S(=O)(Nc1ccc(F)c(Cl)c1)c1ccc(Br)s1`, for which the AC50 under setting [1] is 15.8 µM [falling, partial curve].

In the case of `Cc1cccc(N2CCN(C(=O)Cn3ncc4c5ccccc5n(C)c4c3=O)CC2C)c1` (stereo unspecified), the AC50 under setting [1] is 15.8 µM [falling, partial curve].

For the compound `Cc1nc2ccccn2c1-c1csc(NCc2ccco2)n1`, the AC50 under setting [1] is 12.6 µM [falling, partial curve].

For `COC(=O)c1cc(NC(=O)c2sc3ccccc3c2Cl)cc(C(=O)OC)c1`, the AC50 under setting [1] is 3.16 µM [falling, full curve].

For `CCOc1ccc(-c2nc(CSCC(=O)NCc3ccc(C)cc3)c(C)o2)cc1`, under setting [1], the AC50 was 25.1 µM [falling, single point].

Take `COC(=O)c1cc2occc2n1CC(=O)Nc1ccc(C)cc1Cl`: the AC50 under setting [1] was 0.0631 µM [rising, full curve, poor fit].

For `CC1=CC(C)(C)Nc2ccc(OC(=O)c3cccnc3)cc21`, the concentration at half-maximal activity (AC50) under setting [1] was 5.01 µM [falling, full curve].

As for `O=C1Nc2ccccc2OC1CC(=O)N1CCN(c2cccc(C(F)(F)F)c2)CC1` (stereo unspecified), the AC50 under setting [1] was 15.8 µM [falling, partial curve].

For `O=C(NCC(c1cccnc1)N1CCN(Cc2ccccc2)CC1)C(=O)Nc1cccc(Cl)c1` (stereo unspecified), under setting [1], the AC50 is 15.8 µM [falling, partial curve].

In the case of `NC(=O)CSc1nc2c(oc3ccccc32)c(=O)n1Cc1ccccc1`, the AC50 under setting [1] is 0.0794 µM [falling, partial curve, poor fit].

`Cc1ccccc1C(=O)Nc1c(C(=O)Nc2cccc(F)c2)oc2ccccc12`: under setting [1], the AC50 is 7.94 µM [falling, partial curve, poor fit].

For the compound `O=C(NCc1ccc2c(c1)OCO2)c1ccc2c(c1)N(Cc1ccccc1F)C(=O)c1ccccc1S2=O` (stereo unspecified), the AC50 under setting [1] was 12.6 µM [falling, partial curve, poor fit].

As for `CCOC(=O)c1c(-c2ccccc2)oc2ccc(N(C(C)=O)S(=O)(=O)c3ccccc3)cc12`, under setting [1], the AC50 is 3.98 µM [falling, full curve].

In the case of `Cc1ccc(C(=O)N2CCN(c3cccc(Cl)c3)CC2)cc1C`, the AC50 under setting [1] is 12.6 µM [falling, partial curve].
